± gives the standard deviation of the averaged measurements. Differences between knockout arms are mostly noise.
Tested on: ZR-75-1
Experiment: relative cell number vs DMSO control (72 h) (% of DMSO); higher = less growth inhibition (more cells)
Description: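 QMAP-Seq: a pool of 5 breast cancer cell lines (ZR-75-1, SKBR3, HCC-38, MDA-MB-231, BT-20), each carrying 12 doxycycline-inducible Cas9 sgRNA perturbations (11 knockouts plus non-targeting sgNT), was treated with compounds for 72 h at four 10-fold doses (10 nM-10 uM or 1 nM-1 uM range). Barcodes were amplified and sequenced, and cell number was interpolated from 293T spike-in standard curves. The result is expressed as % of the median of DMSO wells. Two biological replicates.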

[1] = sgRNA knockout: sgATF3, 1000 nM
[2] = sgRNA knockout: sgATF3, 10000 nM
[3] = sgRNA knockout: sgATF4, 1000 nM
[4] = sgRNA knockout: sgATF4, 10000 nM
[5] = sgRNA knockout: sgATF6, 1000 nM
[6] = sgRNA knockout: sgATF6, 10000 nM
[7] = sgRNA knockout: sgATG7, 1000 nM
[8] = sgRNA knockout: sgATG7, 10000 nM
[9] = sgRNA knockout: sgERN1, 1000 nM
[10] = sgRNA knockout: sgERN1, 10000 nM
[11] = sgRNA knockout: sgHSF2, 1000 nM
[12] = sgRNA knockout: sgHSF2, 10000 nM
[13] = sgRNA knockout: sgNFE2L2, 10 nM
[14] = sgRNA knockout: sgNFE2L2, 100 nM
[15] = sgRNA knockout: sgNFE2L2, 1000 nM
[16] = sgRNA knockout: sgNFE2L2, 10000 nM
[17] = sgRNA knockout: sgSLC35F2, 10 nM
[18] = sgRNA knockout: sgSLC35F2, 100 nM
[19] = sgRNA knockout: sgSLC35F2, 1000 nM
[20] = sgRNA knockout: sgSLC35F2, 10000 nM
[21] = sgRNA knockout: sgXBP1, 1000 nM
[22] = sgRNA knockout: sgXBP1, 10000 nM

Row | Structure (SMILES) | relative cell number (sgRNA knockout: sgATF3, 10 nM) | relative cell number (sgRNA knockout: sgATF3, 100 nM) | relative cell number [1] | relative cell number [2] | relative cell number (sgRNA knockout: sgATF4, 10 nM) | relative cell number (sgRNA knockout: sgATF4, 100 nM) | relative cell number [3] | relative cell number [4] | relative cell number (sgRNA knockout: sgATF6, 10 nM) | relative cell number (sgRNA knockout: sgATF6, 100 nM) | relative cell number [5] | relative cell number [6] | relative cell number (sgRNA knockout: sgATG7, 10 nM) | relative cell number (sgRNA knockout: sgATG7, 100 nM) | relative cell number [7] | relative cell number [8] | relative cell number (sgRNA knockout: sgERN1, 10 nM) | relative cell number (sgRNA knockout: sgERN1, 100 nM) | relative cell number [9] | relative cell number [10] | relative cell number (sgRNA knockout: sgHSF2, 10 nM) | relative cell number (sgRNA knockout: sgHSF2, 100 nM) | relative cell number [11] | relative cell number [12] | relative cell number [13] | relative cell number [14] | relative cell number [15] | relative cell number [16] | relative cell number [17] | relative cell number [18] | relative cell number [19] | relative cell number [20] | relative cell number (sgRNA knockout: sgXBP1, 10 nM) | relative cell number (sgRNA knockout: sgXBP1, 100 nM) | relative cell number [21] | relative cell number [22]
1 | CC(C)(C#N)c1ccc(N2C(=O)OCc3cnc4ccc(-c5cnc6ccccc6c5)cc4c32)cc1 | 85.4 ± 26 | 102 ± 3.5 | 99.1 ± 6.2 | 38.1 ± 5 | 92.8 ± 23 | 89.8 ± 14 | 80.2 ± 7.8 | 51.5 ± 13 | 69.4 ± 2.9 | 128 ± 34 | 77 ± 14 | 48.4 ± 37 | 106 ± 47 | 91.1 ± 7 | 120 ± 5.2 | 39.6 ± 27 | 82.4 ± 20 | 108 ± 8.5 | 74.8 ± 13 | 46.4 ± 6.7 | 99.7 ± 1.9 | 97.2 ± 1.6 | 80.4 ± 12 | 39.2 ± 17 | 113 ± 42 | 93.9 ± 16 | 80.6 ± 7.4 | 37.3 ± 12 | 104 ± 7.6 | 86.3 ± 32 | 73.7 ± 8.7 | 34.3 ± 14 | 107 ± 48 | 89.4 ± 25 | 85.9 ± 6.9 | 31.8 ± 3.7
2 | COc1cc2nc(N3CCCN(C)CC3)nc(NC3CCN(Cc4ccccc4)CC3)c2cc1OC | 121 ± 21 | 82.6 ± 31 | 117 ± 27 | 4.76 ± 3.4 | 76.6 ± 19 | 107 ± 20 | 122 ± 8.1 | 2.43 ± 1.2 | 69.6 ± 5.7 | 106 ± 48 | 91.4 ± 13 | 2.5 ± 1.7 | 73.1 ± 23 | 112 ± 16 | 80.3 ± 3.8 | 3.32 ± 1.3 | 108 ± 72 | 79.19 ± 0.53 | 85.2 ± 5 | 3.6 ± 2.9 | 135 ± 8.2 | 119 ± 6.7 | 119 ± 9.6 | 2.73 ± 1.3 | 119 ± 32 | 88.4 ± 19 | 96.6 ± 16 | 3.11 ± 1.8 | 84.2 ± 21 | 64.8 ± 20 | 74.5 ± 16 | 3.17 ± 0.99 | 114 ± 26 | 97.7 ± 6.4 | 86.2 ± 4.3 | 2.54 ± 0.73
3 | C[C@@H]1CN(CC(=O)Nc2ccc3c(c2)Cc2cccc(-c4cc(=O)cc(N5CCOCC5)o4)c2S3)C[C@H](C)O1 | 91.1 ± 4.3 | 97.5 ± 18 | 94.6 ± 3.5 | 48.4 ± 2.8 | 100 ± 3.4 | 81.4 ± 34 | 102 ± 20 | 33.4 ± 11 | 108 ± 52 | 95.6 ± 14 | 108.8 ± 0.69 | 32.4 ± 15 | 113 ± 31 | 119 ± 7.2 | 120 ± 30 | 48.5 ± 1.9 | 76.7 ± 24 | 101 ± 12 | 105 ± 15 | 48.6 ± 5.8 | 107 ± 30 | 100 ± 6.5 | 103 ± 14 | 51.3 ± 13 | 106 ± 16 | 102 ± 21 | 99 ± 35 | 37 ± 16 | 106 ± 4.3 | 60.6 ± 19 | 111 ± 14 | 37.5 ± 3.2 | 123 ± 24 | 140 ± 35 | 101 ± 7.1 | 44.8 ± 11
4 | Cc1[nH]c(/C=C2\C(=O)Nc3ccc(S(=O)(=O)N(C)c4cccc(Cl)c4)cc32)c(C)c1C(=O)N1CCN(C)CC1 | 114 ± 13 | 74.7 ± 14 | 85.5 ± 19 | 41.2 ± 2.5 | 93.1 ± 22 | 86.1 ± 48 | 73.1 ± 6 | 60.9 ± 18 | 101 ± 68 | 92.9 ± 4.1 | 56.8 ± 9.3 | 42.8 ± 1.1 | 93.8 ± 9.3 | 99.2 ± 55 | 71.7 ± 12 | 48.2 ± 28 | 101 ± 3.9 | 81.2 ± 27 | 67 ± 8.7 | 39.1 ± 2.4 | 101 ± 20 | 99.5 ± 21 | 74 ± 28 | 46 ± 16 | 76.6 ± 34 | 92.7 ± 46 | 86.5 ± 6.5 | 24.5 ± 17 | 99 ± 17 | 90.05 ± 0.19 | 103 ± 20 | 44.5 ± 31 | 86.3 ± 23 | 84.5 ± 21 | 73.6 ± 7.6 | 40.5 ± 15
5 | OCc1ccc(-c2ccc(-c3ccc(CO)s3)o2)s1 | 54.2 ± 11 | 8.15 ± 1 | 13.1 ± 1.5 | 7.69 ± 5.4 | 70.3 ± 26 | 12.7 ± 7.5 | 15 ± 8.7 | 5.92 ± 2 | 48.2 ± 10 | 9.39 ± 4.3 | 14.4 ± 1.1 | 5.83 ± 5.3 | 52.9 ± 8.8 | 7.62 ± 1.3 | 11.1 ± 3.7 | 4.31 ± 1.9 | 45.6 ± 5.2 | 8.56 ± 6.4 | 14.1 ± 7.8 | 6.58 ± 1.8 | 40.2 ± 12 | 9.17 ± 3.7 | 10.8 ± 5.2 | 4.49 ± 2.4 | 45 ± 5.8 | 9.67 ± 1.1 | 13.8 ± 5.9 | 5.04 ± 1.9 | 68.6 ± 11 | 7.37 ± 4.4 | 14.2 ± 7.2 | 6.65 ± 5.8 | 35.6 ± 1.1 | 9.33 ± 2.6 | 11.7 ± 3.5 | 5.55 ± 3.2
6 | CC/C(=C(\c1ccc(O)cc1)c1ccc(OCCN(C)C)cc1)c1ccccc1 [4-Hydroxytamoxifen] | 74.9 ± 17 | 69.3 ± 25 | 46.1 ± 20 | 41.4 ± 9.3 | 68.5 ± 2.3 | 98.1 ± 17 | 64.9 ± 1.4 | 37.3 ± 7 | 65.6 ± 1.3 | 84.1 ± 28 | 75.1 ± 1.5 | 57.7 ± 2.2 | 70.8 ± 16 | 87 ± 40 | 75.2 ± 11 | 34.6 ± 8.6 | 84.9 ± 6.9 | 91.7 ± 9.3 | 64.3 ± 20 | 35.8 ± 14 | 70 ± 3.4 | 72.2 ± 7.1 | 63.2 ± 23 | 40.5 ± 7.6 | 92.7 ± 11 | 71.1 ± 7.1 | 82.6 ± 12 | 38.7 ± 5.4 | 80 ± 13 | 74.6 ± 30 | 76.2 ± 45 | 43 ± 20 | 79.5 ± 4.6 | 70.4 ± 4.1 | 93.6 ± 3.1 | 37.4 ± 3.5

From the supplement of paper PMC7661543
